# Laboratory results as given in article PMC6131148.
# Sequences of proteins named here, by UniProt entry; tags and fusion partners are left off.
# UniProt Q86TM6: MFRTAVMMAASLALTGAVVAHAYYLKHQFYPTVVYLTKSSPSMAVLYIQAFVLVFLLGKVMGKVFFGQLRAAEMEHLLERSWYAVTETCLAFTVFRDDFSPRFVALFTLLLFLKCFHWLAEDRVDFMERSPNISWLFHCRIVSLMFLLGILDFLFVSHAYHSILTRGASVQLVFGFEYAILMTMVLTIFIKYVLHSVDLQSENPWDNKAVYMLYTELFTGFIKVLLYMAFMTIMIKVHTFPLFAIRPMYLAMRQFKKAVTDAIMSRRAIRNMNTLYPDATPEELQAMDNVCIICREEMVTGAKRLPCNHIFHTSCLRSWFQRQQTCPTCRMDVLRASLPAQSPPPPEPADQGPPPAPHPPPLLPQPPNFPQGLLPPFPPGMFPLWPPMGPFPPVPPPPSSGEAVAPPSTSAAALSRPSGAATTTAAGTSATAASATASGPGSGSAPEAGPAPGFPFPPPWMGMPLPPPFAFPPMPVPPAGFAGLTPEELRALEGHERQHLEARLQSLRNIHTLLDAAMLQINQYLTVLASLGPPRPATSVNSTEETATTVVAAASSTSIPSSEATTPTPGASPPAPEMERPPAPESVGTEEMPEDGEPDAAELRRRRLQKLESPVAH
# Results are given in words; binding and its absence hold for the method and conditions named. In cells and extracts the contact can be indirect. A yes stands for co-enrichment or nearness to the bait. Other partners may have been found.
# B1: ENTPD5, endogenous in HepG2 cells (enzyme, UniProt O75356 25-428)
# chain: NQQTWFEGIFLSSMCPINVSASTLYGIMFDAGSTGTRIHVYTFVQKMPGQLPILEGEVFDSVKPGLSAFVDQPKQGAETVQGLLEVAKDSIPRSHWKKTPVVLKATAGLRLLPEHKAKALLFEVKEIFRKSPFLVPKGSVSIMDGSDEGILAWVTVNFLTGQLHGHRQETVGTLDLGGASTQITFLPQFEKTLEQTPRGYLTSFEMFNSTYKLYTHSYLGFGLKAARLATLGALETEGTDGHTFRSACLPRWLEAEWIFGGVKYQYGGNQEGEVGFEPCYAEVLRVVRGKLHQPEEVQRGSFYAFSYYYDRAVDTDMIDYEKGGILKVEDFERKAREVCDNLENFTSGSPFLCMDLSYITALLKDGFGFADSTVLQLTKKVNNIETGWALGATFHLLQSLGISH
# B2: MLYCD, endogenous in HepG2 cells (enzyme, UniProt O95822 40-493)
# chain: MDELLRRAVPPTPAYELREKTPAPAEGQCADFVSFYGGLAETAQRAELLGRLARGFGVDHGQVAEQSAGVLHLRQQQREAAVLLQAEDRLRYALVPRYRGLFHHISKLDGGVRFLVQLRADLLEAQALKLVEGPDVREMNGVLKGMLSEWFSSGFLNLERVTWHSPCEVLQKISEAEAVHPVKNWMDMKRRVGPYRRCYFFSHCSTPGEPLVVLHVALTGDISSNIQAIVKEHPPSETEEKNKITAAIFYSISLTQQGLQGVELGTFLIKRVVKELQREFPHLGVFSSLSPIPGFTKWLLGLLNSQTKEHGRNELFTDSECKEISEITGGPINETLKLLLSSSEWVQSEKLVRALQTPLMRLCAWYLYGEKHRGYALNPVANFHLQNGAVLWRINWMADVSLRGITGSCGLMANYRYFLEETGPNSTSYLGSKIIKASEQVLSLVAQFQKNSKL
# B3: HSD17B4, endogenous in HepG2 cells (enzyme, UniProt P51659 1-736)
# chain: MGSPLRFDGRVVLVTGAGAGLGRAYALAFAERGALVVVNDLGGDFKGVGKGSLAADKVVEEIRRRGGKAVANYDSVEEGEKVVKTALDAFGRIDVVVNNAGILRDRSFARISDEDWDIIHRVHLRGSFQVTRAAWEHMKKQKYGRIIMTSSASGIYGNFGQANYSAAKLGLLGLANSLAIEGRKSNIHCNTIAPNAGSRMTQTVMPEDLVEALKPEYVAPLVLWLCHESCEENGGLFEVGAGWIGKLRWERTLGAIVRQKNHPMTPEAVKANWKKICDFENASKPQSIQESTGSIIEVLSKIDSEGGVSANHTSRATSTATSGFAGAIGQKLPPFSYAYTELEAIMYALGVGASIKDPKDLKFIYEGSSDFSCLPTFGVIIGQKSMMGGGLAEIPGLSINFAKVLHGEQYLELYKPLPRAGKLKCEAVVADVLDKGSGVVIIMDVYSYSEKELICHNQFSLFLVGSGGFGGKRTSDKVKVAVAIPNRPPDAVLTDTTSLNQAALYRLSGDWNPLHIDPNFASLAGFDKPILHGLCTFGFSARRVLQQFADNDVSRFKAIKARFAKPVYPGQTLQTEMWKEGNRIHFQTKVQETGDIVISNAYVDLAPTSGTSAKTPSEGGKLQSTFVFEEIGRRLKDIGPEVVKKVNAVFEWHITKGGNIGAKWTIDLKSGSGKVYQGPAKGAADTTIILSDEDFMEVVLGKLDPQKAFFSGRLKARGNIMLSQKLQMILKDYAKL
# B4: CPT2, endogenous in HepG2 cells (enzyme, UniProt P23786 26-658)
# chain: SAGSGPGQYLQRSIVPTMHYQDSLPRLPIPKLEDTIRRYLSAQKPLLNDGQFRKTEQFCKSFENGIGKELHEQLVALDKQNKHTSYISGPWFDMYLSARDSVVLNFNPFMAFNPDPKSEYNDQLTRATNMTVSAIRFLKTLRAGLLEPEVFHLNPAKSDTITFKRLIRFVPSSLSWYGAYLVNAYPLDMSQYFRLFNSTRLPKPSRDELFTDDKARHLLVLRKGNFYIFDVLDQDGNIVSPSEIQAHLKYILSDSSPAPEFPLAYLTSENRDIWAELRQKLMSSGNEESLRKVDSAVFCLCLDDFPIKDLVHLSHNMLHGDGTNRWFDKSFNLIIAKDGSTAVHFEHSWGDGVAVLRFFNEVFKDSTQTPAVTPQSQPATTDSTVTVQKLNFELTDALKTGITAAKEKFDATMKTLTIDCVQFQRGGKEFLKKQKLSPDAVAQLAFQMAFLRQYGQTVATYESCSTAAFKHGRTETIRPASVYTKRCSEAFVREPSRHSAGELQQMMVECSKYHGQLTKEAAMGQGFDRHLFALRHLAAAKGIILPELYLDPAYGQINHNVLSTSTLSSPAVNLGGFAPVVSDGFGVGYAVHDNWIGCNVSSYPGRNAREFLQCVEKALEDMFDALEGKSIKS
# B5: RMND1, endogenous in HepG2 cells (protein, UniProt Q9NWS8 13-449)
# chain: HHILSKAHQCRRIGHLMLKPLKEFENTTCSTLTIRQSLDLFLPDKTASGLNKSQILEMNQKKSDTSMLSPLNAARCQDEKAHLPTMKSFGTHRRVTHKPNLLGSKWFIKILKRHFSSVSTETFVPKQDFPQVKRPLKASRTRQPSRTNLPVLSVNEDLMHCTAFATADEYHLGNLSQDLASHGYVEVTSLPRDAANILVMGVENSAKEGDPGTIFFFREGAAVFWNVKDKTMKHVMKVLEKHEIQPYEIALVHWENEELNYIKIEGQSKLHRGEIKLNSELDLDDAILEKFAFSNALCLSVKLAIWEASLDKFIESIQSIPEALKAGKKVKLSHEEVMQKIGELFALRHRINLSSDFLITPDFYWDRENLEGLYDKTCQFLSIGRRVKVMNEKLQHCMELTDLMRNHLNEKRALRLEWMIVILITIEVMFELGRVFF
# B6: AKR1C1, endogenous in HepG2 cells (enzyme, UniProt Q04828 1-323)
# chain: MDSKYQCVKLNDGHFMPVLGFGTYAPAEVPKSKALEATKLAIEAGFRHIDSAHLYNNEEQVGLAIRSKIADGSVKREDIFYTSKLWCNSHRPELVRPALERSLKNLQLDYVDLYLIHFPVSVKPGEEVIPKDENGKILFDTVDLCATWEAVEKCKDAGLAKSIGVSNFNRRQLEMILNKPGLKYKPVCNQVECHPYFNQRKLLDFCKSKDIVLVAYSALGSHREEPWVDPNSPVLLEDPVLCALAKKHKRTPALIALRYQLQRGVVVLAKSYNEQRIRQNVQVFEFQLTSEEMKAIDGLNRNVRYLTLDIFAGPPNYPFSDEY
# Target: HMG-CoA reductase degradation protein 1 (HRD1), endogenous in HepG2 cells (human (endogenous in HepG2)) (UniProt Q86TM6)
# Experiment: affinity purification with mass spectrometry; endogenous HRD1 precipitated with anti-HRD1 (SYVN1) antibody from HepG2 lysate in NETN buffer (20 mM Tris-Cl pH 8.0, 150 mM NaCl, 1 mM EDTA, 0.5% NP-40), Protein A Sepharose; normal rabbit IgG as control; three independent experiments
row,binding,Binder
1,binds,B1
2,binds,B2
3,binds,B3
4,binds,B4
5,binds,B5
6,binds,B6
